# Measurements taken from the supplement of paper PMC12823440, “Inhibitors supercharge kinase turnover through native proteolytic circuits” (Nature, 2025).
# The chains behind the UniProt entries cited, without tags or fusion partners. Where a name states a change or a piece, a line headed by the entry shows the natural chain unless it says otherwise.
# UniProt O75460: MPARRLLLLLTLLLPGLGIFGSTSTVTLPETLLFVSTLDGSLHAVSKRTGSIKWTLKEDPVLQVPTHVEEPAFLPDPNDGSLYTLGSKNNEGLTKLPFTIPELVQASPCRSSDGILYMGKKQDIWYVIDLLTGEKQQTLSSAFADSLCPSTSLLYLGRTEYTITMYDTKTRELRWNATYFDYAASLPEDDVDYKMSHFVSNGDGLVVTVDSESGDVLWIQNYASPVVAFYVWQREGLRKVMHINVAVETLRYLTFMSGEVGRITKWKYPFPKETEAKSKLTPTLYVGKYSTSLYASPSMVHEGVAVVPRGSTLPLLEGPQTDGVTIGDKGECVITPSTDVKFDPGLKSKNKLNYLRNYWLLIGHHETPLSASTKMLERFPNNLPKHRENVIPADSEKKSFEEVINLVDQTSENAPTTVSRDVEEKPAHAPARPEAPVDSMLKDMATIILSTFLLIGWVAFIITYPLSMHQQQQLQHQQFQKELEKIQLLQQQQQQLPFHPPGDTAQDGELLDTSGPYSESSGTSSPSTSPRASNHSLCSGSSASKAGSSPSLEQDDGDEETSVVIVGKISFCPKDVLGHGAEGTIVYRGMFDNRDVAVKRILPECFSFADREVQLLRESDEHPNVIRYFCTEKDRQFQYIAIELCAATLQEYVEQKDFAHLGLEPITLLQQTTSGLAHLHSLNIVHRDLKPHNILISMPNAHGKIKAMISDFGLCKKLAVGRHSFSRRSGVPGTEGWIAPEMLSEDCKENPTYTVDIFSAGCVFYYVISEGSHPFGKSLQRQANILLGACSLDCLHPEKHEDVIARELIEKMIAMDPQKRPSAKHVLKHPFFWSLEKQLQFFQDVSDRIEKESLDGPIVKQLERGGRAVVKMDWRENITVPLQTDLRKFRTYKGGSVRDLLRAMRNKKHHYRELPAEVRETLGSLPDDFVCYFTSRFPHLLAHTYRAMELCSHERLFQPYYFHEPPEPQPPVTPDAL
# UniProt P21802, whole entry, looked up: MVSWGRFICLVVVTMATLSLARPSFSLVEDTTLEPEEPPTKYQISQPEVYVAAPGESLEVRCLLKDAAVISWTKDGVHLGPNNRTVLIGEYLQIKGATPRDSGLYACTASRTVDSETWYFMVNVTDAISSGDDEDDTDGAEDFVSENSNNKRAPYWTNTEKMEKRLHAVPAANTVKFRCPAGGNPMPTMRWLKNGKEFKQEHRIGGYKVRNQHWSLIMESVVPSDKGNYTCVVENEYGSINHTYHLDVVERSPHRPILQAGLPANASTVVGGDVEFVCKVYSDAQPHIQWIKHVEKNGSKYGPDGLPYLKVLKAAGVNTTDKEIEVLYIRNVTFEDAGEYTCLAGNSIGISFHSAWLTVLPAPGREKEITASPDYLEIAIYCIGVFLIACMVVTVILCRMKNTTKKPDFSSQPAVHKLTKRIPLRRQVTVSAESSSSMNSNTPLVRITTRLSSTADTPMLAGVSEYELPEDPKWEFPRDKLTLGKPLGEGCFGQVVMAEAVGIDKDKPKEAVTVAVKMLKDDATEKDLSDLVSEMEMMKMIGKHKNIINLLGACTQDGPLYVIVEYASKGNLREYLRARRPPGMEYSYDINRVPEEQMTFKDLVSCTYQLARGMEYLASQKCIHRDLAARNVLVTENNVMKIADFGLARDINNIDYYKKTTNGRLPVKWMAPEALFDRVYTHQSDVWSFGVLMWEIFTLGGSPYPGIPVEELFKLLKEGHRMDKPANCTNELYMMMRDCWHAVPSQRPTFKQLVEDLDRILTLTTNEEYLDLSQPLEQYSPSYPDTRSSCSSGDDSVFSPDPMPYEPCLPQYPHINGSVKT
# UniProt P22607, whole entry, looked up: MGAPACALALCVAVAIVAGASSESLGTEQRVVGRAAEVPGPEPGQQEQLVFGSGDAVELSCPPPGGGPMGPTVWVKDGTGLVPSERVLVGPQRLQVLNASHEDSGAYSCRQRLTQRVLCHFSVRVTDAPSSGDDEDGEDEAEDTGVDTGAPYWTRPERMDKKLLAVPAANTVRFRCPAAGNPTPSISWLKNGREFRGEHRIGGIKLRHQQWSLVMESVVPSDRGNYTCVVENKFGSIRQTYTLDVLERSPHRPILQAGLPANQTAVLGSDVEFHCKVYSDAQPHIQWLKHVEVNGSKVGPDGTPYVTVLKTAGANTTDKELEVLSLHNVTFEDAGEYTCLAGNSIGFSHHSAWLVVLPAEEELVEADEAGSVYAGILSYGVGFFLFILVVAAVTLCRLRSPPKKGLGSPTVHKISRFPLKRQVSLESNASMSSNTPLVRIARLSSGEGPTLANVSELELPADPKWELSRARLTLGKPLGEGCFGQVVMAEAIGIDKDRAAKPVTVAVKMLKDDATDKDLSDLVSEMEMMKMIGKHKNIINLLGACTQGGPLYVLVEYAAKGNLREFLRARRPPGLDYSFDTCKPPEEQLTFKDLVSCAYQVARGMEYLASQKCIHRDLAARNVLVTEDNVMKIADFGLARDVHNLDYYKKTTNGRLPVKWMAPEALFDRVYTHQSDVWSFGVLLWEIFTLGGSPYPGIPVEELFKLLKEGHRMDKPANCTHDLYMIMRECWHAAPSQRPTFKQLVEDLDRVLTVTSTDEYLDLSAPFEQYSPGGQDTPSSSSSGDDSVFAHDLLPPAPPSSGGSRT
# UniProt P36888, whole entry: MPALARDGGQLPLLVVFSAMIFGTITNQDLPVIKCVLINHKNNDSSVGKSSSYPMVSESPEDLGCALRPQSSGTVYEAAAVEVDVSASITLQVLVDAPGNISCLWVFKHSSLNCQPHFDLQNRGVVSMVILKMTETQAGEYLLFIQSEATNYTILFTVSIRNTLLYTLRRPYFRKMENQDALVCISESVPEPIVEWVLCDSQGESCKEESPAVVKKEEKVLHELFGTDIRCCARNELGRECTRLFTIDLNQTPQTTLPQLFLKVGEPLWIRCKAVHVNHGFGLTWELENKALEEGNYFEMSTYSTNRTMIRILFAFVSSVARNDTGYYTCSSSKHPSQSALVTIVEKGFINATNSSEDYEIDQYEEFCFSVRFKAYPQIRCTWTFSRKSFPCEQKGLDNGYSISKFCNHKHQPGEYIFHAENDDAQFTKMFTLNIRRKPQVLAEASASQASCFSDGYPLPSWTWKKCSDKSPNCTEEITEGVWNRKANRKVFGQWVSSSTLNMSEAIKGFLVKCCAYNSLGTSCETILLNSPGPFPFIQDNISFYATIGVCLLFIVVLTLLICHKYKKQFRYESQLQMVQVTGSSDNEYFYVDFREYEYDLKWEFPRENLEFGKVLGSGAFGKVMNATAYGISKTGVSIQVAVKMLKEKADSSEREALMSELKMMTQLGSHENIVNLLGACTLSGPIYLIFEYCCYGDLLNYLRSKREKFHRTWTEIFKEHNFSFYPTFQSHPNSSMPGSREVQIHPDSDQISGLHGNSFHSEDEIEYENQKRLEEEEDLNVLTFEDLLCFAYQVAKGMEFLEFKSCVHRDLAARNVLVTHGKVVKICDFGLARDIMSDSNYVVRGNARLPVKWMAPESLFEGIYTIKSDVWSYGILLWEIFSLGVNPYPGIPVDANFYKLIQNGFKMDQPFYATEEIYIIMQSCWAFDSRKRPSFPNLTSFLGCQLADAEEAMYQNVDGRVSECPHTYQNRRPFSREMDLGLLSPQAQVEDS
# UniProt P06241, whole entry, looked up: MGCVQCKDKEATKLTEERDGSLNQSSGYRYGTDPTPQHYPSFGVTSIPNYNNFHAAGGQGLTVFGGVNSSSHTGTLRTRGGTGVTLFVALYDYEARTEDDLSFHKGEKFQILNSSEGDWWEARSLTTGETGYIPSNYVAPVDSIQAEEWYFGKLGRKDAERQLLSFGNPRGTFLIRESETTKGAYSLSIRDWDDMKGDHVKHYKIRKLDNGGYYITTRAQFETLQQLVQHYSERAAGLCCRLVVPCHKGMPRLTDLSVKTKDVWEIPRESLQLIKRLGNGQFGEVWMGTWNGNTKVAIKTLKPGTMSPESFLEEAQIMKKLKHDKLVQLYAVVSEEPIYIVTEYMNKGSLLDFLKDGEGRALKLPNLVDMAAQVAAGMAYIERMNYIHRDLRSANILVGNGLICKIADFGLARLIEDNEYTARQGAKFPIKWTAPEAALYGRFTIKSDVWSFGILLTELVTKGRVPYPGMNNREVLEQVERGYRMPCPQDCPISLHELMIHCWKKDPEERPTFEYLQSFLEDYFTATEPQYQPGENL
# UniProt P49840: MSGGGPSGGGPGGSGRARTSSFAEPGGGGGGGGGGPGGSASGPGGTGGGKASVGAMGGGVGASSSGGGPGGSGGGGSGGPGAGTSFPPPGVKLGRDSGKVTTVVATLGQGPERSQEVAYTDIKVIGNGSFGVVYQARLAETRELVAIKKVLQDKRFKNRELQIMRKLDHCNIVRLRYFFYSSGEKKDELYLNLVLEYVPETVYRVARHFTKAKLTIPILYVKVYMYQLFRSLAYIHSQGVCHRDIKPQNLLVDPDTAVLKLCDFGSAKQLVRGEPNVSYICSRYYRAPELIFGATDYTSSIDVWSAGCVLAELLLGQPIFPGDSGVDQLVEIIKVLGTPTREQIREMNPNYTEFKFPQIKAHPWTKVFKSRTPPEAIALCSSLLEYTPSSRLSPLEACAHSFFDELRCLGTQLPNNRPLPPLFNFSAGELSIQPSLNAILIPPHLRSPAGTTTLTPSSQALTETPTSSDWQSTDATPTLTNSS
# UniProt P14616: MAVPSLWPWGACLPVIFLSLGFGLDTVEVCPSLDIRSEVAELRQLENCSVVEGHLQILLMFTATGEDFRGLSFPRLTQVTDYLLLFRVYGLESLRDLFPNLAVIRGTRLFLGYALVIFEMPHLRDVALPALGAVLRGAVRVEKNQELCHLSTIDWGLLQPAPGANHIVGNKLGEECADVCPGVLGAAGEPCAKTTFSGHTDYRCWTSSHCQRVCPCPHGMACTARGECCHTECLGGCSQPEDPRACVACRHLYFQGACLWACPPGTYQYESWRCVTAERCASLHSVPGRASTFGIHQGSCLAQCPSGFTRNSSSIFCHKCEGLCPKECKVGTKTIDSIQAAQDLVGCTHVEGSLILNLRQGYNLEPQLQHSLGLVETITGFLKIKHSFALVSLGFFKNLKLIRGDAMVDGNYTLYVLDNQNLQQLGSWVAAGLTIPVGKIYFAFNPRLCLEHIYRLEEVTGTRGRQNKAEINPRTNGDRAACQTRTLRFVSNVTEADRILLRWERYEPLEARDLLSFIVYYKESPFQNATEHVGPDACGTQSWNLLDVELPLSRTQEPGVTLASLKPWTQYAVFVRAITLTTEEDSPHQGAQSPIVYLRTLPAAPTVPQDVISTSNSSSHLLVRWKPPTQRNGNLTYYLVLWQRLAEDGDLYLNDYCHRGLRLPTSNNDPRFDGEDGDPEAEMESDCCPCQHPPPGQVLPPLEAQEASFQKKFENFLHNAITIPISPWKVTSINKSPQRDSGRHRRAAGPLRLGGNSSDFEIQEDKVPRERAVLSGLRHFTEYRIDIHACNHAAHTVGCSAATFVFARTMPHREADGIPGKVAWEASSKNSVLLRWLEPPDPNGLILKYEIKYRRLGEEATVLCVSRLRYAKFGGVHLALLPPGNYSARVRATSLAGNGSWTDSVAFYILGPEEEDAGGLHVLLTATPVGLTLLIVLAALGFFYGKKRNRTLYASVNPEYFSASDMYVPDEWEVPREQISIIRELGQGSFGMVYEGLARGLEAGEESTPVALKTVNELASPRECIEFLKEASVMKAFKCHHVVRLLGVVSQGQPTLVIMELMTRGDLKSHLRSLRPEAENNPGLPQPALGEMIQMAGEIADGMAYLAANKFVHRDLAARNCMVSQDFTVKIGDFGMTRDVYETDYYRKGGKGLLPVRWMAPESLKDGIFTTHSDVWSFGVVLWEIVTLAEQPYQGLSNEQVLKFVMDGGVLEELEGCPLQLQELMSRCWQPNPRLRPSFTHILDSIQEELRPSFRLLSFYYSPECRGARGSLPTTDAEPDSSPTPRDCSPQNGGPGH
# Where a name gives a salt, the structure may show the parent alone. The list shows a part of the results. Hit calls seldom repeat between salt and free forms of one compound.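 In K562 cells expressing nanoluciferase-fused kinases, luminescence was recorded at 4 h intervals between 2 and 18 h, normalized as percent of control with DMSO at 100% and a positive control at 0%. A significant (2 sigma) signal drop marks a time point as decreased. The authors' rule for a hit is not shown and takes in more than the number of time points.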
# Legend:
# Test in all cases: kinase-Nluc reporter destabilization hit call (1 = scored as downregulated) (binary); higher = compound decreases kinase abundance
# Settings in all cases: K562; 2-18 h
# ERN1 = ERN1 (UniProt O75460)
# FGFR1 = FGFR1 (UniProt P11362)
# FGFR2 = FGFR2 (UniProt P21802)
# FGFR3 = FGFR3 (UniProt P22607)
# FGR = FGR (UniProt P09769)
# FLT3 = FLT3 (UniProt P36888)
# FYN = FYN (UniProt P06241)
# GSK3A = GSK3A (UniProt P49840)
# HER2 = HER2 (UniProt P04626)
# INSRR = INSRR (UniProt P14616)
SMILES,kinase-Nluc reporter destabilization hit call (ERN1),kinase-Nluc reporter destabilization hit call (FGFR1),kinase-Nluc reporter destabilization hit call (FGFR2),kinase-Nluc reporter destabilization hit call (FGFR3),kinase-Nluc reporter destabilization hit call (FGR),kinase-Nluc reporter destabilization hit call (FLT3),kinase-Nluc reporter destabilization hit call (FYN),kinase-Nluc reporter destabilization hit call (GSK3A),kinase-Nluc reporter destabilization hit call (HER2),kinase-Nluc reporter destabilization hit call (INSRR)
COc1cc2nc(NC3CC3)nc(NC3CCN(C(C)C)CC3)c2cc1OC (10 µM),inactive: 0,inactive: 0,inactive: 0,inactive: 0,inactive: 0,inactive: 0,inactive: 0,inactive: 0,inactive: 0,inactive: 0
CN1CCN(c2ccc(-n3cc(-c4ccncc4OCC4CCNCC4)cn3)cc2)CC1 [MELK-8a (hydrochloride)] (10 µM),inactive: 0,inactive: 0,inactive: 0,inactive: 0,inactive: 0,inactive: 0,inactive: 0,inactive: 0,inactive: 0,inactive: 0
O=c1cc(N2CCOCC2)oc2c(-c3cccc4c3sc3ccccc34)cccc12 (10 µM),inactive: 0,inactive: 0,inactive: 0,inactive: 0,inactive: 0,inactive: 0,inactive: 0,inactive: 0,inactive: 0,inactive: 0
CC(=O)O/N=C1/C(c2c(O)[nH]c3cc(Br)ccc23)=Nc2ccccc21 [BIO-acetoxime] (10 µM),inactive: 0,inactive: 0,inactive: 0,inactive: 0,inactive: 0,inactive: 0,inactive: 0,inactive: 0,inactive: 0,inactive: 0
N=C(NC(=N)N1CCCC1)Nc1ccc(OC(F)(F)F)cc1 (10 µM),inactive: 0,inactive: 0,inactive: 0,inactive: 0,inactive: 0,inactive: 0,inactive: 0,inactive: 0,inactive: 0,inactive: 0
Cc1ccc(NC(=O)N2CCN(c3nc(N)nc4sc(-c5cccnc5)nc34)CC2)cc1 [PI4KIII beta inhibitor 3] (10 µM),inactive: 0,inactive: 0,inactive: 0,inactive: 0,inactive: 0,inactive: 0,inactive: 0,inactive: 0,inactive: 0,inactive: 0
CC1(C)CN(C(=O)c2ccc(-c3cccc4nc(NC(=O)C5CC5)nn34)cc2)C1 [Solcitinib] (10 µM),inactive: 0,inactive: 0,inactive: 0,inactive: 0,inactive: 0,inactive: 0,inactive: 0,inactive: 0,inactive: 0,inactive: 0
COc1cc2ncnc(Nc3cc(Br)c(O)c(Br)c3)c2cc1OC (2.5 µM),inactive: 0,inactive: 0,inactive: 0,inactive: 0,inactive: 0,inactive: 0,inactive: 0,inactive: 0,inactive: 0,inactive: 0
O=C(Nc1ccc(Cl)cc1)C1CN(C(=O)c2cccc(-c3ccco3)c2)CC(F)(F)C1 (stereo not given) (2.5 µM),inactive: 0,inactive: 0,inactive: 0,inactive: 0,inactive: 0,inactive: 0,inactive: 0,inactive: 0,inactive: 0,inactive: 0
CS(=O)(=O)c1cccc(CNc2nc(Nc3ccc4c(c3)CCC(=O)N4)ncc2C(F)(F)F)c1 (10 µM),inactive: 0,inactive: 0,inactive: 0,inactive: 0,inactive: 0,inactive: 0,inactive: 0,inactive: 0,inactive: 0,inactive: 0
CCCS(=O)(=O)N[C@H]1C[C@@H](N(C)c2ncnc3[nH]ccc23)C1 [Abrocitinib] (10 µM),inactive: 0,inactive: 0,inactive: 0,inactive: 0,inactive: 0,inactive: 0,inactive: 0,inactive: 0,inactive: 0,inactive: 0
Cc1n[nH]c2ncc(C(=O)N3CCC[C@H]3c3ccc(Cl)cc3)cc12 (10 µM),inactive: 0,inactive: 0,inactive: 0,inactive: 0,inactive: 0,inactive: 0,inactive: 0,inactive: 0,inactive: 0,inactive: 0
CC1=C(C#N)C(c2ccc3[nH]nc(C)c3c2)C(C#N)=C(C)N1 (10 µM),inactive: 0,inactive: 0,inactive: 0,inactive: 0,inactive: 0,inactive: 0,inactive: 0,inactive: 0,inactive: 0,inactive: 0
CC(ONC(=O)c1cc(C(F)(F)F)cc(C(F)(F)F)c1)C(=O)Nc1ccc(Cl)cc1 (stereo not given) (2.5 µM),inactive: 0,inactive: 0,inactive: 0,inactive: 0,inactive: 0,inactive: 0,inactive: 0,inactive: 0,active: 1,inactive: 0
Cc1cncc2cccc(S(=O)(=O)N3CCCNC[C@@H]3C)c12 [H-1152 (dihydrochloride)] (10 µM),inactive: 0,inactive: 0,inactive: 0,inactive: 0,inactive: 0,inactive: 0,inactive: 0,inactive: 0,inactive: 0,inactive: 0
Oc1ccc(-c2cnc3ccc(NCc4ccco4)nn23)cc1 [IRAK inhibitor 2] (2.5 µM),inactive: 0,inactive: 0,inactive: 0,inactive: 0,inactive: 0,inactive: 0,inactive: 0,inactive: 0,inactive: 0,inactive: 0
NC(=O)c1ccccc1Nc1ccnc(Nc2cccc(O)c2)n1 (10 µM),inactive: 0,inactive: 0,inactive: 0,inactive: 0,inactive: 0,inactive: 0,inactive: 0,inactive: 0,inactive: 0,inactive: 0
N#C/C(=C/c1ccc(O)c(O)c1)C(=O)N1CCc2ccccc21 [Tyrphostin AG 528] (10 µM),inactive: 0,inactive: 0,inactive: 0,inactive: 0,inactive: 0,inactive: 0,inactive: 0,inactive: 0,inactive: 0,inactive: 0
CC(C)(Oc1ccc(Cl)cc1)C(=O)Nc1ccc(OCc2ccc(C#N)cc2)cc1 [AMPK activator 4] (10 µM),inactive: 0,inactive: 0,inactive: 0,inactive: 0,inactive: 0,inactive: 0,inactive: 0,inactive: 0,inactive: 0,inactive: 0
COc1ccc(Cl)cc1N(CC(=O)Nc1ccc2c(c1)OCO2)S(=O)(=O)c1ccccc1 (2.5 µM),inactive: 0,inactive: 0,inactive: 0,inactive: 0,inactive: 0,inactive: 0,inactive: 0,inactive: 0,inactive: 0,inactive: 0
CO/N=C1/C(c2c(O)[nH]c3cc(Cl)c(Cl)cc23)=Nc2ccccc21 (10 µM),inactive: 0,inactive: 0,inactive: 0,inactive: 0,inactive: 0,inactive: 0,inactive: 0,inactive: 0,inactive: 0,inactive: 0
CC/C(=C(\c1ccccc1)c1ccc(OCCNC)cc1)c1ccccc1 [N-Desmethyltamoxifen (hydrochloride)] (2.5 µM),inactive: 0,inactive: 0,inactive: 0,inactive: 0,inactive: 0,inactive: 0,inactive: 0,inactive: 0,inactive: 0,inactive: 0
Cn1cc(-c2nc(N[C@@H]3CCCC[C@@H]3N)c(F)c3c2C(=O)NC3)cn1 [TAK-659 (hydrochloride)] (2 µM),inactive: 0,inactive: 0,inactive: 0,inactive: 0,inactive: 0,inactive: 0,inactive: 0,inactive: 0,inactive: 0,inactive: 0
Cc1nc(NC(=O)N2CCC[C@H]2C(N)=O)sc1-c1ccnc(C(C)(C)C(F)(F)F)c1 [Alpelisib] (2.5 µM),inactive: 0,inactive: 0,inactive: 0,inactive: 0,inactive: 0,inactive: 0,inactive: 0,inactive: 0,inactive: 0,inactive: 0
C[C@@H]1COC(Nc2ccc3ncnc(Nc4ccc(OCc5nccs5)c(Cl)c4)c3c2)=N1 [Varlitinib] (10 µM),inactive: 0,inactive: 0,inactive: 0,inactive: 0,inactive: 0,active: 1,inactive: 0,inactive: 0,inactive: 0,inactive: 0
COc1ccc(CCNCc2ccc(OCc3ccc(Cl)nc3)c(OC)c2)cc1OC [SBE13 (Hydrochloride)] (10 µM),inactive: 0,inactive: 0,inactive: 0,inactive: 0,inactive: 0,inactive: 0,inactive: 0,inactive: 0,inactive: 0,inactive: 0
Cc1ccc2c(NS(=O)(=O)c3ccccc3Cl)cccc2c1Oc1ncccc1-c1ccnc(N[C@H]2CCCNC2)n1 (2.5 µM),inactive: 0,inactive: 0,inactive: 0,inactive: 0,inactive: 0,inactive: 0,inactive: 0,inactive: 0,inactive: 0,inactive: 0
COc1ccc(CN2CCC(c3ccc4nc(C(=O)N5CCN(Cc6ccc(C(F)(F)F)cc6)CC5)[nH]c4c3)CC2)cn1 (2.5 µM),inactive: 0,inactive: 0,inactive: 0,inactive: 0,inactive: 0,inactive: 0,inactive: 0,inactive: 0,inactive: 0,inactive: 0
Nc1ccc(-c2nc3ccc(-c4nc5ccc(N)cc5[nH]4)cc3[nH]2)cc1 (10 µM),inactive: 0,inactive: 0,inactive: 0,inactive: 0,inactive: 0,inactive: 0,inactive: 0,inactive: 0,inactive: 0,inactive: 0
CN1C(=O)[C@@H](NC(=O)c2cc(Cc3ccccc3)on2)COc2ccccc21 (10 µM),inactive: 0,inactive: 0,inactive: 0,inactive: 0,inactive: 0,inactive: 0,inactive: 0,inactive: 0,inactive: 0,inactive: 0

# Retrieved by structure from the entries so far (2):
SMILES,kinase-Nluc reporter destabilization hit call (ERN1),kinase-Nluc reporter destabilization hit call (FGFR1),kinase-Nluc reporter destabilization hit call (FGFR2),kinase-Nluc reporter destabilization hit call (FGFR3),kinase-Nluc reporter destabilization hit call (FGR),kinase-Nluc reporter destabilization hit call (FLT3),kinase-Nluc reporter destabilization hit call (FYN),kinase-Nluc reporter destabilization hit call (GSK3A),kinase-Nluc reporter destabilization hit call (HER2),kinase-Nluc reporter destabilization hit call (INSRR)
COc1cc2ncnc(Nc3cc(Br)c(O)c(Br)c3)c2cc1OC (2.5 µM),inactive: 0,inactive: 0,inactive: 0,inactive: 0,inactive: 0,inactive: 0,inactive: 0,inactive: 0,inactive: 0,inactive: 0
CS(=O)(=O)c1cccc(CNc2nc(Nc3ccc4c(c3)CCC(=O)N4)ncc2C(F)(F)F)c1 (10 µM),inactive: 0,inactive: 0,inactive: 0,inactive: 0,inactive: 0,inactive: 0,inactive: 0,inactive: 0,inactive: 0,inactive: 0
